Source: US20190144547A1
No constants are given. Whether binding was seen depends on the method and setting. Some results given as binding are weak or reduced against the parent protein; the word gives no strength.

Chains of the proteins cited; added tags and fusions are not shown. Lines headed by an entry give the natural chain unless they say otherwise; changes in a name come on top.
UniProt P06756: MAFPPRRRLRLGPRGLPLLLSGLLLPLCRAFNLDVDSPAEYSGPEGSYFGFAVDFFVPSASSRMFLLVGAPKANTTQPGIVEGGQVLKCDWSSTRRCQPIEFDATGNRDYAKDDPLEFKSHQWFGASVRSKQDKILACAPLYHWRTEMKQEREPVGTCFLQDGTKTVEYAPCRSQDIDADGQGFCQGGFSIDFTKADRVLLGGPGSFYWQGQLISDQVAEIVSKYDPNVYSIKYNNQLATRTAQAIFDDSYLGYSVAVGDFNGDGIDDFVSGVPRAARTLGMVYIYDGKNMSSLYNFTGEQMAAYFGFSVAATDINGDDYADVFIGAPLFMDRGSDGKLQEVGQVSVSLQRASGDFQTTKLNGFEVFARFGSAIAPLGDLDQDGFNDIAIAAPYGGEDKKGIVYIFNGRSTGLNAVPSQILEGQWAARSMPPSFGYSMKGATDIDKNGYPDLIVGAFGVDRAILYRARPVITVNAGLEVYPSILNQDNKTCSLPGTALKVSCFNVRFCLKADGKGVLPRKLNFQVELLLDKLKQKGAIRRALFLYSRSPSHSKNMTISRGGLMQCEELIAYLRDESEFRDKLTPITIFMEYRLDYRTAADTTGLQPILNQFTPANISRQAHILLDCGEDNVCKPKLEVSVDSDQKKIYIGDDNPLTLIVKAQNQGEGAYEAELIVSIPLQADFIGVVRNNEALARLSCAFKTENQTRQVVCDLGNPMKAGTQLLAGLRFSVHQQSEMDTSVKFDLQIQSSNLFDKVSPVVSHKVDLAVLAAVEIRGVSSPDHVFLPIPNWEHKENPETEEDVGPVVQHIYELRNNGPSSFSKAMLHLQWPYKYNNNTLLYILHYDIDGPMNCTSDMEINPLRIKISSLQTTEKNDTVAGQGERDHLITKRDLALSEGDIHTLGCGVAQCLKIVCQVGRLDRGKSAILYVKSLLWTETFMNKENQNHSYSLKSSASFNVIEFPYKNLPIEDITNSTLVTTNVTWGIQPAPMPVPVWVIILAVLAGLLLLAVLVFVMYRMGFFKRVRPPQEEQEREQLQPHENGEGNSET
UniProt P18564: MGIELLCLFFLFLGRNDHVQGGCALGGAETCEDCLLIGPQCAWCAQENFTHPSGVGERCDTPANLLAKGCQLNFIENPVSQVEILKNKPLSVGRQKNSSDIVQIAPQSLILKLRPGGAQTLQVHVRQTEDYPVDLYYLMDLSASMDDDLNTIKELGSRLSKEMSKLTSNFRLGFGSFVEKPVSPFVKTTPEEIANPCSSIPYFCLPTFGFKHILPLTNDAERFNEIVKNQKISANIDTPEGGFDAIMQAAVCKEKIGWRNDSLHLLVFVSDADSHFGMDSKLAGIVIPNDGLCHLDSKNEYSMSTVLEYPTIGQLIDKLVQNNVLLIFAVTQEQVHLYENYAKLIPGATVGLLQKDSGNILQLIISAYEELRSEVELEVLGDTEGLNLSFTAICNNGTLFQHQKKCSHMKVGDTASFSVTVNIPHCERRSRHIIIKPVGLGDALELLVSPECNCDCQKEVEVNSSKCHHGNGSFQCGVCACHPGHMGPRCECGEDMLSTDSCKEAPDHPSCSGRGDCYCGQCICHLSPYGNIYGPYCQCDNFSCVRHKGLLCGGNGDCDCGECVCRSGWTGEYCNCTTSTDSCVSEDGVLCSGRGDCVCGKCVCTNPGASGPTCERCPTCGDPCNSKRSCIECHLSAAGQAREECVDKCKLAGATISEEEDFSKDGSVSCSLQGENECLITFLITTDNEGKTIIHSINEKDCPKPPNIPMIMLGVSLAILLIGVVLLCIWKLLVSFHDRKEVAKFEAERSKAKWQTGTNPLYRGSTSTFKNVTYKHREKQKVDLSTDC

Key:
[1] = target: T1, recombinant human αvβ6 integrin (human) (UniProt P06756+P18564); assay: competitive ELISA
[2] = target: T1, recombinant human αvβ6 integrin (human); assay: competitive binding ELISA, αvβ6 on pre-coated LAP
[3] = target: T1, recombinant human αvβ6 integrin (human); assay: competitive ELISA, antibody titrated against αvβ6 on LAP-coated plate

Measured: binding

B1: anti-αv integrin antibody DI17E6 (Abituzumab) (antibody, V domains shown)
VH: QVQLQQSGGELAKPGASVKVSCKASGYTFSSFWMHWVRQAPGQGLEWIGYINPRSGYTEYNEIFRDKATMTTDTSTSTAYMELSSLRSEDTAVYYCASFLGRGAMDYWGQGTTVTVSS
VL: DIQMTQSPSSLSASVGDRVTITCRASQDISNYLAWYQQKPGKAPKLLIYYTSKIHSGVPSRFSGSGSGTDYTFTISSLQPEDIATYYCQQGNTFPYTFGQGTKVEIKR
binds: all assays above
